This is an account of results in PubChem BioAssay AID250 (DTP/NCI, 2004).

In experiment [1] the test system is BDF1 mice, L1210 leukemia sc, survival T/C. Nature of the experiment: NCI In Vivo Anticancer Drug Screen. Data for tumor model L1210 Leukemia (subcutaneous) in B6D2F1 (BDF1) mice. The following applies: T/C endpoint: median survival time, higher T/C = longer survival. The method in brief: (§1)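 Transplantable tumor-bearing mice; survival or tumor size recorded; result = T/C, treated vs vehicle control.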

In experiment [2] the test system is BDF1 mice, L1210 leukemia sc. Described as above. The following applies: T/C endpoint: median survival time, higher T/C = longer survival. The method in brief:
as §1

Molecules are shown by their SMILES. The list is a part of this screen's results and no random one: it gathers tests that were run many times, whatever their T/C, doses with no T/C, and many T/C values between a quarter and a half above the control. Other doses and runs of a compound stand elsewhere. T/C is the treated group as % of the vehicle group. Some doses have a count of surviving animals in place of a T/C: the source files T/C as zero there, which appears to mark a toxic dose or a test without result, not a measured value. Some doses without a T/C left all or most animals alive at the check, yet need not have been tolerated: survival well below the control is almost never listed, so the zero probably covers shortened survival too. For some assays here: Counts of survivors are from the toxicity check (mostly the fifth day) where no day follows; animals may have died later. Schedule codes are those of the source, taken here to give the interval after Q, in days (D) or hours (H), and the number of doses after X. Some schedule codes hold Z or #, which are not explained here. For some assays here: Where survival is the endpoint, this PubChem deposit counts one and a half times the control or more as active, and values a quarter to a half above the control carry no call in these data; other NCI protocols may use other cut-offs. Some T/C values are followed by the survivors on the day toxicity was checked, most often the fifth; where none is given, no animal had died by that day.

For the compound `CC[n+]1ccc(Nc2ccc(NC(=O)c3ccc(Nc4cc[n+](CC)c5ccc(N)cc45)cc3)cc2)cc1`, the survivor count is 0 of 8 in experiment [1] (dose: 16.0 mg/kg/injection, schedule: Q01DX009 (ip), vehicle: water); 1 of 8 in experiment [1] (dose: 16.0 mg/kg/injection, schedule: Q03HX008 (sc), vehicle: water); 5 of 8 in experiment [1] (dose: 32.0 mg/kg/injection, schedule: Q01DX001 (sc), vehicle: water). Further, the T/C in experiment [2] (dose: 2.0 mg/kg/injection, schedule: Q01DX009 (sc), vehicle: water) is 145 % of control; in experiment [2] (dose: 4.0 mg/kg/injection, schedule: Q03HX008 (sc), vehicle: water), 130 % of control; in experiment [2] (dose: 4.0 mg/kg/injection, schedule: Q03HX024 (ip), vehicle: water) it was 133 % of control; in experiment [2] (dose: 8.0 mg/kg/injection, schedule: Q03HX024 (sc), vehicle: water) it was 140 % of control; in experiment [2] (dose: 8.0 mg/kg/injection, schedule: Q04DX003 (sc), vehicle: water), 125 % of control; in experiment [2] (dose: 16.0 mg/kg/injection, schedule: Q01DX001 (sc), vehicle: water) it was 130 % of control. Further, in experiment [2] (dose: 32.0 mg/kg/injection, schedule: Q04DX003 (sc), vehicle: water), the T/C was 140 % of control [7 of 8 alive].
`Nc1ncnc2[nH]ncc12`: the survivor count in experiment [1] (dose: 38.9 mg/kg/injection, schedule: Q01DX Z (sc), vehicle: methylcellulose (MC)) is given as 10 of 10; in experiment [1] (dose: 64.8 mg/kg/injection, schedule: Q01DX Z (sc), vehicle: methylcellulose (MC)) it was 8 of 10; in experiment [1] (dose: 108.0 mg/kg/injection, schedule: Q01DX Z (sc), vehicle: methylcellulose (MC)) it was 0 of 10. Also, the T/C was 145 % of control in experiment [2] (dose: 14.0 mg/kg/injection, schedule: Q01DX Z (sc), vehicle: methylcellulose (MC)); 133 % of control in experiment [2] (dose: 16.9 mg/kg/injection, schedule: Q01DX Z (sc), vehicle: methylcellulose (MC)); 125 % of control in experiment [2] (dose: 23.3 mg/kg/injection, schedule: Q01DX Z (sc), vehicle: methylcellulose (MC)); 129 % of control in experiment [2] (dose: 28.1 mg/kg/injection, schedule: Q01DX Z (sc), vehicle: methylcellulose (MC)).
For `CSc1ncnc2c1ncn2C1OC(CO)C(O)C1O` (stereo not given), the survivor count in experiment [1] (dose: 500.0 mg/kg/injection, schedule: Q01DX001 (sc), vehicle: water) was 3 of 8. The T/C in experiment [2] (dose: 65.0 mg/kg/injection, schedule: Q01DX Z (sc), vehicle: water) was 144 % of control; in experiment [2] (dose: 108.0 mg/kg/injection, schedule: Q01DX Z (sc), vehicle: water), 144 % of control.
